Laboratory results: PubChem BioAssay AID1053208 (Peter MacCallum Cancer Centre, 2014)
Aim: 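Find knock-downs that sensitise mouse osteosarcoma cells to doxorubicin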 (primary screen). Cell system: mouse osteosarcoma cells, early-passage culture from an engineered mouse model of fibroblastic bone tumour. Reagents: siRNA pool against mouse genes, 40 nM. Time to read-out: about 120 h (48 h before drug, then 72 h with drug). Treatment: doxorubicin 100 nM for 72 h, roughly 30-40% inhibitory dose. Measurement: 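Viability read as ATP luminescence after 72 h of 100 nM doxorubicin or none, duplicate wells averaged, scaled to non-targeting siRNA, then expressed as robust z-scores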. Scale: viability z-score with doxorubicin: higher = more viable cells under doxorubicin; viability z-score without drug: higher = more viable cells with knock-down alone. Hit rule: 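a pool counts as active when its viability z-score with doxorubicin is -2 or below and its z-score without drug lies between -2 and 2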.
Here is a random part of about 17,000 deposited reagents. Over the whole deposit, 788 (4.7%) were called active. 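Calls rest on z-score classes alone; an extra cut-off of viability at most 70% of control was not applied to them.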 Further read-outs or replicates are left out here.

9130230L23Rik [SID152325342]: combined z-score class = no change with or without drug; viability z-score with doxorubicin = 1.12; viability z-score without drug = 1.35; Call = inactive
Scara5 [SID152279123]: combined z-score class = no change with or without drug; viability z-score with doxorubicin = 1.12; viability z-score without drug = 0.51; Call = inactive
Slc44a4 [SID152337365]: combined z-score class = no change with or without drug; viability z-score with doxorubicin = -0.67; viability z-score without drug = 1.85; Call = inactive
Atp6v0c [SID152266047]: combined z-score class = no change with or without drug; viability z-score with doxorubicin = 0.22; viability z-score without drug = -1.18; Call = inactive
Tbcel [SID152342611]: combined z-score class = no change with or without drug; viability z-score with doxorubicin = 0; viability z-score without drug = 0.17; Call = inactive
Kynu [SID152303154]: combined z-score class = no change with or without drug; viability z-score with doxorubicin = -0.45; viability z-score without drug = 1.01; Call = inactive
Zfp526 [SID152304587]: combined z-score class = high cell count without drug only; viability z-score with doxorubicin = 1.12; viability z-score without drug = 2.53; Call = inactive
Btaf1 [SID152330060]: combined z-score class = no change with or without drug; viability z-score with doxorubicin = -1.35; viability z-score without drug = -0.51; Call = inactive
Slc24a1 [SID152262825]: combined z-score class = no change with or without drug; viability z-score with doxorubicin = 0; viability z-score without drug = 0.67; Call = inactive
Styx [SID152334676]: combined z-score class = no change with or without drug; viability z-score with doxorubicin = 0; viability z-score without drug = -0.34; Call = inactive
Lrrc58 [SID152277809]: combined z-score class = no change with or without drug; viability z-score with doxorubicin = -1.46; viability z-score without drug = -0.17; Call = inactive
Adh7 [SID152299285]: combined z-score class = no change with or without drug; viability z-score with doxorubicin = 0.79; viability z-score without drug = 1.18; Call = inactive
Triap1 [SID152296926]: combined z-score class = no change with or without drug; viability z-score with doxorubicin = -1.35; viability z-score without drug = 0.67; Call = inactive
Capn3 [SID152342120]: combined z-score class = no change with or without drug; viability z-score with doxorubicin = 0.56; viability z-score without drug = 0.84; Call = inactive
Pnlip [SID152305870]: combined z-score class = no change with or without drug; viability z-score with doxorubicin = 0.22; viability z-score without drug = -0.17; Call = inactive
Stradb [SID152318688]: combined z-score class = no change with or without drug; viability z-score with doxorubicin = 0.67; viability z-score without drug = -1.85; Call = inactive
Spdye4b [SID152284649]: combined z-score class = no change with or without drug; viability z-score with doxorubicin = 1.8; viability z-score without drug = 1.85; Call = inactive
Lurap1l [SID152311362]: combined z-score class = no change with or without drug; viability z-score with doxorubicin = 0.45; viability z-score without drug = 1.52; Call = inactive
Or11l3 [SID152337734]: combined z-score class = no change with or without drug; viability z-score with doxorubicin = -1.35; viability z-score without drug = -1.18; Call = inactive
Hrnr [SID152277209]: combined z-score class = no change with or without drug; viability z-score with doxorubicin = 0.45; viability z-score without drug = 1.85; Call = inactive
Or4k47 [SID152340645]: combined z-score class = no change with or without drug; viability z-score with doxorubicin = -1.46; viability z-score without drug = -1.18; Call = inactive

4 of these entries in another layout.
{"gene knocked down": "Slc44a4", "PubChem SID": "SID152337365", "combined z-score class": "no change with or without drug", "viability z-score with doxorubicin": -0.67, "viability z-score without drug": 1.85, "Call": "inactive"}
{"gene knocked down": "Atp6v0c", "PubChem SID": "SID152266047", "combined z-score class": "no change with or without drug", "viability z-score with doxorubicin": 0.22, "viability z-score without drug": -1.18, "Call": "inactive"}
{"gene knocked down": "Tbcel", "PubChem SID": "SID152342611", "combined z-score class": "no change with or without drug", "viability z-score with doxorubicin": 0, "viability z-score without drug": 0.17, "Call": "inactive"}
{"gene knocked down": "Kynu", "PubChem SID": "SID152303154", "combined z-score class": "no change with or without drug", "viability z-score with doxorubicin": -0.45, "viability z-score without drug": 1.01, "Call": "inactive"}

The listing continues:
Clvs2 [SID152271788]: combined z-score class = no change with or without drug; viability z-score with doxorubicin = -1.01; viability z-score without drug = -1.18; Call = inactive
Tssk3 [SID152279669]: combined z-score class = no change with or without drug; viability z-score with doxorubicin = 0.56; viability z-score without drug = 0.17; Call = inactive
Tssk3 [SID152299915]: combined z-score class = no change with or without drug; viability z-score with doxorubicin = -0.11; viability z-score without drug = 0.34; Call = inactive
Rnf150 [SID152323225]: combined z-score class = low cell count with doxorubicin only; viability z-score with doxorubicin = -2.92; viability z-score without drug = -0.84; Call = active
Htatip2 [SID152304091]: combined z-score class = no change with or without drug; viability z-score with doxorubicin = 0.79; viability z-score without drug = 1.52; Call = inactive
Ffar2 [SID152319398]: combined z-score class = no change with or without drug; viability z-score with doxorubicin = -1.12; viability z-score without drug = 1.52; Call = inactive
Gadd45a [SID152311704]: combined z-score class = no change with or without drug; viability z-score with doxorubicin = 0.56; viability z-score without drug = -0.84; Call = inactive
P4hb [SID152264492]: combined z-score class = no change with or without drug; viability z-score with doxorubicin = -0.34; viability z-score without drug = -1.35; Call = inactive
Mbip [SID152272588]: combined z-score class = no change with or without drug; viability z-score with doxorubicin = 1.12; viability z-score without drug = -0.51; Call = inactive
Traf2 [SID152310788]: combined z-score class = no change with or without drug; viability z-score with doxorubicin = 0; viability z-score without drug = -0.67; Call = inactive
H13 [SID152272768]: combined z-score class = no change with or without drug; viability z-score with doxorubicin = 0.45; viability z-score without drug = -0.34; Call = inactive
Zdhhc21 [SID152308076]: combined z-score class = high cell count with doxorubicin only; viability z-score with doxorubicin = 2.81; viability z-score without drug = 0.84; Call = inactive
Vtn [SID152338925]: combined z-score class = no change with or without drug; viability z-score with doxorubicin = 0.22; viability z-score without drug = 1.01; Call = inactive
Exoc4 [SID152288051]: combined z-score class = no change with or without drug; viability z-score with doxorubicin = -1.35; viability z-score without drug = 0.17; Call = inactive
Abhd17b [SID152318269]: combined z-score class = no change with or without drug; viability z-score with doxorubicin = 0.22; viability z-score without drug = 1.85; Call = inactive
